Laboratory results from article PMC11054080.
These are yes or no findings as the source states them, for the method shown. For some assays here: In cells and extracts the contact can be indirect. For some assays here: Tags and fused reporters may be left off the sequences shown. Each block holds one binder with its values, some of them ahead of it.

Chains of the proteins cited; added tags and fusions are not shown.
UniProt Q39204: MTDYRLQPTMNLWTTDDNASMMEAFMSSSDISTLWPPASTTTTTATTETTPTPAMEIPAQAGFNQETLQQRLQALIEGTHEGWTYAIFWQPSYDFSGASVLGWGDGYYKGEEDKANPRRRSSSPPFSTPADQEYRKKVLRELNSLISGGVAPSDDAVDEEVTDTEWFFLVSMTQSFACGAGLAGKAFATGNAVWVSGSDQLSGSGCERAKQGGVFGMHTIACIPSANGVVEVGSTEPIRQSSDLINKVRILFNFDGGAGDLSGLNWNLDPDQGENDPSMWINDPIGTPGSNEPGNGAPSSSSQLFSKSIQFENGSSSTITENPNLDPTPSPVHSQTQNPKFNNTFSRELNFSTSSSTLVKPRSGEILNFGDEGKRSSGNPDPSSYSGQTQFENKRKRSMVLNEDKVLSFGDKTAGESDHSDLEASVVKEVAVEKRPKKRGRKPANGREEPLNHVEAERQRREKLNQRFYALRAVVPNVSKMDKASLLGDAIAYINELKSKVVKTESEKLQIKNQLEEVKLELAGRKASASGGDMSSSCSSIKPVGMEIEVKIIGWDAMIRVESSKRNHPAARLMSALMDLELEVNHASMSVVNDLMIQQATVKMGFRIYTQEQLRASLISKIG

Legend:
[1] = biological target: MYC2 with HA label (pMYC2-HA) (A. thaliana) (UniProt Q39204); assay: co-IP; HA- and MYC-labelled proteins co-expressed in N. benthamiana leaves (sampled 40 h after infiltration); total protein extract (50 mM Tris-HCl pH 7.5, 150 mM NaCl, 1 mM EDTA, 10% glycerol, 0.05% Tween20, 10 mM DTT, 50 uM MG132) on HA-agarose beads; blots with anti-HA and anti-MYC
[2] = biological target: T1, PAP1 with HA label (pPAP1-HA) (A. thaliana) (UniProt Q9FE25); assay: as above
T1 sequence: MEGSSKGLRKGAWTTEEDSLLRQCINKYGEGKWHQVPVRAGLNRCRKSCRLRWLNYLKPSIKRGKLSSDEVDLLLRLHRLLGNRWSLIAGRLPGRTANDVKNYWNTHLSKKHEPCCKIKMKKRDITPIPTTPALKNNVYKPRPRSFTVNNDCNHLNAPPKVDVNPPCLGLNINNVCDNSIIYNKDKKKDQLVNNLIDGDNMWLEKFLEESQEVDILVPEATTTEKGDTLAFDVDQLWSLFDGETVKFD

[3] = biological target: T2, GL3 labeled by HA-tag (pGL3-HA) (A. thaliana) (UniProt Q9FN69); assay: as above
T2 sequence: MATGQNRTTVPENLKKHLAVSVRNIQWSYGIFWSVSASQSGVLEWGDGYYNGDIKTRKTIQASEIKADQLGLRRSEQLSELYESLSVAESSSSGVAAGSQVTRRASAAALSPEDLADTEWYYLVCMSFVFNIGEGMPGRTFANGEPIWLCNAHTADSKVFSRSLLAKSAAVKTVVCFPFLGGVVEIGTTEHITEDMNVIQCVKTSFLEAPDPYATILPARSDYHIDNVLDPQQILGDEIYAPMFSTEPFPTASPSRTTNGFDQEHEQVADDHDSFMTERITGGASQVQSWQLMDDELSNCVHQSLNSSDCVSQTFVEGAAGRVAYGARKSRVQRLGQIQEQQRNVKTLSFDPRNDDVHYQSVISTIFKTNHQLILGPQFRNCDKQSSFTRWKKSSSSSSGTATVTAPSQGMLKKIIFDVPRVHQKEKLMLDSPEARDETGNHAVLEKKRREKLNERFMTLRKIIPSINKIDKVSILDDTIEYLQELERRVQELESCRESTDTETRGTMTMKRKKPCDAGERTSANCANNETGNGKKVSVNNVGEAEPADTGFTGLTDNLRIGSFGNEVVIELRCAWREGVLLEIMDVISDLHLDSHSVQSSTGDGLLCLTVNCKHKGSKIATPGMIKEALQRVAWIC

[4] = biological target: T3, TTG1 in yeast two-hybrid (A. thaliana) (UniProt Q9XGN1); assay: two-hybrid; HybriZAP-2.1 Gal4 system, pAD-GAL4 2.1 and pBD-GAL4 Cam fusions in YRG-2 yeast; growth on SD/-Leu-His-Trp with or without 3-AT (HIS3 reporter)
T3 sequence: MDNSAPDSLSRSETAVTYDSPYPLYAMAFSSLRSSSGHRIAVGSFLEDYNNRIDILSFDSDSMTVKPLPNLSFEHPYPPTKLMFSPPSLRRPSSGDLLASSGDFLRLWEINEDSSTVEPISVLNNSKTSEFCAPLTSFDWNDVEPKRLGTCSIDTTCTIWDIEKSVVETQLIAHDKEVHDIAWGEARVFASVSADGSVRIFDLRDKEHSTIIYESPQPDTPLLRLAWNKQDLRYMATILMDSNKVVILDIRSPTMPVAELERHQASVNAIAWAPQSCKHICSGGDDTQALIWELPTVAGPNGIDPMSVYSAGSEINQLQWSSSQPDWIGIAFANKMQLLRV

[5] = biological target: T4, BBX21 with MYC label (pBBX21-MYC) (A. thaliana) (UniProt Q9LQZ7); assay: co-IP; HA- and MYC-labelled proteins co-expressed in N. benthamiana leaves (sampled 40 h after infiltration); total protein extract (50 mM Tris-HCl pH 7.5, 150 mM NaCl, 1 mM EDTA, 10% glycerol, 0.05% Tween20, 10 mM DTT, 50 uM MG132) on HA-agarose beads; blots with anti-HA and anti-MYC
T4 sequence: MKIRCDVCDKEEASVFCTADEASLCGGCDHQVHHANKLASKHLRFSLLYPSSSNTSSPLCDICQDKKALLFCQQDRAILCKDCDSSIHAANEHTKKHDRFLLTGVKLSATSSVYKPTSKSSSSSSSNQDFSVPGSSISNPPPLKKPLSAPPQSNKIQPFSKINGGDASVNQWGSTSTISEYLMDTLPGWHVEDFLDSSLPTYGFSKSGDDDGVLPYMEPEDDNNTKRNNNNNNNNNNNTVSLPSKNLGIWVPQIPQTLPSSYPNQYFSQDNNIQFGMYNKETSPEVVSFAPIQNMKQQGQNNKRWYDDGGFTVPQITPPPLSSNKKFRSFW

- binding [1]: no binding
- binding [2]: no binding
- binding [3]: no binding
B1: BBX21 with MYC label (pBBX21-MYC) (protein, UniProt Q9LQZ7 1-331)
chain: T4 sequence

- binding [4]: no binding
B2: BBX21 in yeast two-hybrid (protein, UniProt Q9LQZ7 1-331)
chain: T4 sequence

- binding [4]: no binding
B3: SPL9 in yeast two-hybrid (protein, UniProt Q700W2 1-375)
chain: MEMGSNSGPGHGPGQAESGGSSTESSSFSGGLMFGQKIYFEDGGGGSGSSSSGGRSNRRVRGGGSGQSGQIPRCQVEGCGMDLTNAKGYYSRHRVCGVHSKTPKVTVAGIEQRFCQQCSRFHQLPEFDLEKRSCRRRLAGHNERRRKPQPASLSVLASRYGRIAPSLYENGDAGMNGSFLGNQEIGWPSSRTLDTRVMRRPVSSPSWQINPMNVFSQGSVGGGGTSFSSPEIMDTKLESYKGIGDSNCALSLLSNPHQPHDNNNNNNNNNNNNNNTWRASSGFGPMTVTMAQPPPAPSQHQYLNPPWVFKDNDNDMSPVLNLGRYTEPDNCQISSGTAMGEFELSDHHHQSRRQYMEDENTRAYDSSSHHTNWSL

- binding [5]: no binding
- binding [1]: no binding
- binding [3]: no binding
B4: SPL9 with MYC label (pSPL9-MYC) (protein, UniProt Q700W2 1-375)
chain: B3 chain
